Data as given in PubChem BioAssay AID1259308 (NCATS, 2017).
Test: 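Knock-downs that increase output of a recombinant reporter protein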 (primary screen). Cells: human HEK293 embryonic kidney cells stably expressing firefly luciferase (HEK-CMV-Luc2-Hygro). Reagents: single siRNA against human genes, 0.8 pmol siRNA per well. Timing: 72 h. Measured: 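Luciferase light (ONE-Glo) measured on one replicate plate set and viability (CellTiter-Glo) on the other, scaled to a negative control siRNA, with robust z-scores and luciferase per cell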. Direction: total luciferase, z-score and total luciferase, % of control: higher = more reporter protein produced; luciferase per cell, z-score: higher = more reporter output per viable cell; viable cells, % of control: higher = more viable cells. Active means: 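An siRNA counts as active if its total luciferase robust z-score exceeds 3; genes with two or more such siRNAs out of three were retested with fresh siRNAs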. Meaning of the calls: active = raised luciferase; inactive = no rise.
Shown is a random part of about 59,000 reagents. Of all reagents, about 1,510 (2.6%) got an active call. 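Calls use total luciferase alone and ignore viability, so some active siRNAs may act by altering cell number.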 Entries without a mark were called inactive. The numbers tell different reagents against one gene apart.

gene knocked down | reagent no. | total luciferase, z-score | total luciferase, % of control | luciferase per cell, z-score | viable cells, % of control
ATXN10 | 1 | 0.808 | 98 | -0.161 | 114
ATXN10 | 2 | -0.699 | 68 | -0.687 | 91
ATXN10 | 3 | 0.431 | 90.5 | 0.637 | 85.5
SMTN | 1 | -1.34 | 55.2 | -0.738 | 74.9
SMTN | 2 | 2.22 | 126 | 2.07 | 81.6
SMTN | 3 | -0.997 | 62 | -1.35 | 98.9
EXD2 | 1 | -0.339 | 75.2 | 0.0451 | 83
EXD2 | 2 | 0.48 | 91.4 | 0.111 | 99.2
EXD2 | 3 | 0.0222 | 82.3 | 0.0117 | 91.7
ALG12 | 1 | 1.12 | 104 | 0.812 | 94
ALG12 | 2 | -1.48 | 52.4 | -1.79 | 93.8
ALG12 | 3 | -0.617 | 69.6 | 0.476 | 68.6
PRRC2A | 1 | 0.259 | 87 | 1.22 | 70.5
PRRC2A | 2 | -2.58 | 30.5 | -1.24 | 47.3
PRRC2A | 3 | -1.76 | 46.8 | -1.36 | 74.9
RAB18 | 1 | -0.234 | 77.2 | -0.312 | 93.7
RAB18 | 2 | -0.0609 | 80.7 | -0.106 | 92.7
RAB18 | 3 | -0.544 | 71.1 | -0.45 | 89.4
IL22 | 1 | 1.69 | 115 | 1.56 | 85.6
IL22 | 2 | -0.508 | 71.8 | -0.761 | 98
IL22 | 3 | -0.314 | 75.6 | -0.621 | 99.5
RBP5 | 1 | 0.113 | 84.1 | 0.0441 | 92.9
RBP5 | 2 | -0.646 | 69 | -0.646 | 91.5
RBP5 | 3 | 0.256 | 87 | 0.726 | 80.3

2 of these entries, reformatted.
gene knocked down	reagent no.	total luciferase, z-score	total luciferase, % of control	luciferase per cell, z-score	viable cells, % of control
SMTN	3	-0.997	62	-1.35	98.9
EXD2	1	-0.339	75.2	0.0451	83
